# This is one part of the list.
# The chains behind the UniProt entries cited, without tags or fusion partners. Where a name states a change or a piece, a line headed by the entry shows the natural chain unless it says otherwise.
# UniProt P51858: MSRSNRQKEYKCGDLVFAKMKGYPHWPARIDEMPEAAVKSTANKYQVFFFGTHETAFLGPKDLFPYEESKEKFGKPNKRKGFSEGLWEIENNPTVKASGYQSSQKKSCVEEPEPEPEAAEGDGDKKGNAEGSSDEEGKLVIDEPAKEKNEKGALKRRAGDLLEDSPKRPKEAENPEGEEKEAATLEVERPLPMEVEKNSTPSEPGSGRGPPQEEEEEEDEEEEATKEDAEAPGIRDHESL
# UniProt Q13888: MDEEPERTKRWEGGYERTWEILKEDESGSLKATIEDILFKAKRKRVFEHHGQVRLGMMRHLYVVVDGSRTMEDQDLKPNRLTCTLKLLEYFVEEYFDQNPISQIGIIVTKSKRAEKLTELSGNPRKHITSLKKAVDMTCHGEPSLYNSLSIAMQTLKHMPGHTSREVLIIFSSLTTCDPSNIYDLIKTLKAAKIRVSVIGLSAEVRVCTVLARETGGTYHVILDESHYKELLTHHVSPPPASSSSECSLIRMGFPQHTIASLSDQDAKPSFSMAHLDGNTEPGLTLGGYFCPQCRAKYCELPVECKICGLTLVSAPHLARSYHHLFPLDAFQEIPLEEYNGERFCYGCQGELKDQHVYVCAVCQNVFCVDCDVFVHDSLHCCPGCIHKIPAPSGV
# UniProt P16402, whole entry, looked up: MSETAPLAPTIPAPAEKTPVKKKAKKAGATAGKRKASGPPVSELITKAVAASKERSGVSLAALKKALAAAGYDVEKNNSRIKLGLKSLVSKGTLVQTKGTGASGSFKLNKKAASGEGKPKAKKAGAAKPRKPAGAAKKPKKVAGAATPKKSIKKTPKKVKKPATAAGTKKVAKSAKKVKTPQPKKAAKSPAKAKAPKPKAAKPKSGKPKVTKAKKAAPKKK
# UniProt Q9Y450, whole entry, looked up: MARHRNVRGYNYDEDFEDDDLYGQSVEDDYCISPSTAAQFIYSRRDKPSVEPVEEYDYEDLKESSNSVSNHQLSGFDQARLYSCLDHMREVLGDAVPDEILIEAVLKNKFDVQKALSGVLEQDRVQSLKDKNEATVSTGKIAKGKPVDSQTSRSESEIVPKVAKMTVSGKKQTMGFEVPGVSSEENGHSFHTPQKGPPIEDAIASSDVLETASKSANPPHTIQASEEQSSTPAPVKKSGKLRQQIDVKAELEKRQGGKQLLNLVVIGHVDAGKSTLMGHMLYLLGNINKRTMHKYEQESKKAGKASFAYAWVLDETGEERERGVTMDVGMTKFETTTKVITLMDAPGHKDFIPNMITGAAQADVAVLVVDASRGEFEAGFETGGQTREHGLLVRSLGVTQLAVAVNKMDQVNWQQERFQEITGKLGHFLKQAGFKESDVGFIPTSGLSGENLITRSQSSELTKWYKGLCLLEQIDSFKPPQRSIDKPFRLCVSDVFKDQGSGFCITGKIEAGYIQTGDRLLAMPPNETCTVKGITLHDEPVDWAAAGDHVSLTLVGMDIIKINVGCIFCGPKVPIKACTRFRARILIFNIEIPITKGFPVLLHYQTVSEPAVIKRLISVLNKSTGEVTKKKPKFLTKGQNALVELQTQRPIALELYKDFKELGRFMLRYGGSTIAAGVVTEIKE
# UniProt P02008: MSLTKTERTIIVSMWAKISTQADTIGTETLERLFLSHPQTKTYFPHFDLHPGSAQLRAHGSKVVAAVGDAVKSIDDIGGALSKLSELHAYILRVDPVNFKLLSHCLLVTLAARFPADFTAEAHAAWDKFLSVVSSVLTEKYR
# UniProt Q9BXW7: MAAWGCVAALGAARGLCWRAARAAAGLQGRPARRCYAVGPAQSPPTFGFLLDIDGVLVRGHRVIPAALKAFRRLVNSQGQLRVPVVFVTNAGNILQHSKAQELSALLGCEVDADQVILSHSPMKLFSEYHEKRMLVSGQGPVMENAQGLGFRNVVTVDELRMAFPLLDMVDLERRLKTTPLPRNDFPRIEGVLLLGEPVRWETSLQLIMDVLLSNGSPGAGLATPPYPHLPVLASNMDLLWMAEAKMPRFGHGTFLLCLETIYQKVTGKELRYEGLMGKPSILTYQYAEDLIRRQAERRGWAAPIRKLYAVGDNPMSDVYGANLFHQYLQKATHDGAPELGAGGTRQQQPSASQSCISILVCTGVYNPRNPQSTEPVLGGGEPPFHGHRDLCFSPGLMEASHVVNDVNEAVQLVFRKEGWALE
# UniProt P78347: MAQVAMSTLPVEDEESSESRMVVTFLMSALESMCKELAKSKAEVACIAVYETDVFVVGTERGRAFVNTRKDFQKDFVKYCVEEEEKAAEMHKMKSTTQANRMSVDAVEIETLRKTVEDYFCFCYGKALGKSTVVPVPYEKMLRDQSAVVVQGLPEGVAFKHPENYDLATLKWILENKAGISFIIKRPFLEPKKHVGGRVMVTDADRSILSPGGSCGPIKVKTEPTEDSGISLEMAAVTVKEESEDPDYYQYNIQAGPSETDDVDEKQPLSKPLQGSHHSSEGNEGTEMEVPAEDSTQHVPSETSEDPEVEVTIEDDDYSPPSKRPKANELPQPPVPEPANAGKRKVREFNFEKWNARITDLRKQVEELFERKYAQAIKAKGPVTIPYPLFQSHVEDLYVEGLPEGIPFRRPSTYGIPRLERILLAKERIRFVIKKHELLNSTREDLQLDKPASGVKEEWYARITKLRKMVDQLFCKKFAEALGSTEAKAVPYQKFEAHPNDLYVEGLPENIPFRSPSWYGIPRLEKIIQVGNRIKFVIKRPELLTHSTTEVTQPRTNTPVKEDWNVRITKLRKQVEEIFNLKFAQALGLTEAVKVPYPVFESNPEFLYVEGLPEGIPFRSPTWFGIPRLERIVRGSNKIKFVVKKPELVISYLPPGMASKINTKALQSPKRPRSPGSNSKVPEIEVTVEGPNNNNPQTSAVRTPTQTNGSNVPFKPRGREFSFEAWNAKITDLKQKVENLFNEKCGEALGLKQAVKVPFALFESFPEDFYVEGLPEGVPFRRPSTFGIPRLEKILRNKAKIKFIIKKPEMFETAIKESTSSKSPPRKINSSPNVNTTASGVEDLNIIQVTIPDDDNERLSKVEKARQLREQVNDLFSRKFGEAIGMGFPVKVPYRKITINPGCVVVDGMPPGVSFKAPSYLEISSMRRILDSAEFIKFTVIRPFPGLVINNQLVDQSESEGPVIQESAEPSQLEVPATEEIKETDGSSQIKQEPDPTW
# UniProt P56524: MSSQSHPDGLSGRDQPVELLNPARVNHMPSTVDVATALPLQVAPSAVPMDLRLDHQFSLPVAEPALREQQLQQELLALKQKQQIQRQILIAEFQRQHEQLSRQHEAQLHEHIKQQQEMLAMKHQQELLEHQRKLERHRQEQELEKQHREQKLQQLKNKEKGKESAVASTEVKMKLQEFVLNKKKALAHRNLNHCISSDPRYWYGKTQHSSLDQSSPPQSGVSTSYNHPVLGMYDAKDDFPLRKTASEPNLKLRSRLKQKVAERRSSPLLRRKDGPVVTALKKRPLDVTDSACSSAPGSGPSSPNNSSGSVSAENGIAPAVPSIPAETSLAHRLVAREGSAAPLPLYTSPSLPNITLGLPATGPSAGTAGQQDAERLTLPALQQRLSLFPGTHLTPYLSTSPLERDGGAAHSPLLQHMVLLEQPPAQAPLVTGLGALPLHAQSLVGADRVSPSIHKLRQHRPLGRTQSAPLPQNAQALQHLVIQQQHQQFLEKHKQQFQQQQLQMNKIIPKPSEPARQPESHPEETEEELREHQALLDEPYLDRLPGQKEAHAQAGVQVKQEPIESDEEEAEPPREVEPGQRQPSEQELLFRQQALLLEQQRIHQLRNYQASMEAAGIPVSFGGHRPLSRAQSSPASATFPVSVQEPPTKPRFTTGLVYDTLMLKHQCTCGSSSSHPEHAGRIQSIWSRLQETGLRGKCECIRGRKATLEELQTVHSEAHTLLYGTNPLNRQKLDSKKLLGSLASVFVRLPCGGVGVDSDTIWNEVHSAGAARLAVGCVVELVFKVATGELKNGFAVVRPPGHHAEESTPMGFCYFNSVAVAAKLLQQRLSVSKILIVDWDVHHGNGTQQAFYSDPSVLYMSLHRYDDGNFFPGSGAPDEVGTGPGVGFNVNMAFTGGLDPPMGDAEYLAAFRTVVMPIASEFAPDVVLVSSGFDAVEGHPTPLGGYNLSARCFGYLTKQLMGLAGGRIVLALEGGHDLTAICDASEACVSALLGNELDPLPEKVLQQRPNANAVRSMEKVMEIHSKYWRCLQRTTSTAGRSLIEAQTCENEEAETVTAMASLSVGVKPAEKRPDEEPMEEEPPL
# UniProt P53701: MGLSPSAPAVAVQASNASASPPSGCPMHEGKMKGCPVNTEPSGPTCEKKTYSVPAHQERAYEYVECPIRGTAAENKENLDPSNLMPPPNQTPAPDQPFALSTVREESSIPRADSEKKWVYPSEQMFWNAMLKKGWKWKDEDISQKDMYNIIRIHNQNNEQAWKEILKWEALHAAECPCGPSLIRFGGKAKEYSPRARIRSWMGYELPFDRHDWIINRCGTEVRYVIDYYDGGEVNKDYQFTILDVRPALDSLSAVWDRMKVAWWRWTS
# UniProt Q9NYZ3: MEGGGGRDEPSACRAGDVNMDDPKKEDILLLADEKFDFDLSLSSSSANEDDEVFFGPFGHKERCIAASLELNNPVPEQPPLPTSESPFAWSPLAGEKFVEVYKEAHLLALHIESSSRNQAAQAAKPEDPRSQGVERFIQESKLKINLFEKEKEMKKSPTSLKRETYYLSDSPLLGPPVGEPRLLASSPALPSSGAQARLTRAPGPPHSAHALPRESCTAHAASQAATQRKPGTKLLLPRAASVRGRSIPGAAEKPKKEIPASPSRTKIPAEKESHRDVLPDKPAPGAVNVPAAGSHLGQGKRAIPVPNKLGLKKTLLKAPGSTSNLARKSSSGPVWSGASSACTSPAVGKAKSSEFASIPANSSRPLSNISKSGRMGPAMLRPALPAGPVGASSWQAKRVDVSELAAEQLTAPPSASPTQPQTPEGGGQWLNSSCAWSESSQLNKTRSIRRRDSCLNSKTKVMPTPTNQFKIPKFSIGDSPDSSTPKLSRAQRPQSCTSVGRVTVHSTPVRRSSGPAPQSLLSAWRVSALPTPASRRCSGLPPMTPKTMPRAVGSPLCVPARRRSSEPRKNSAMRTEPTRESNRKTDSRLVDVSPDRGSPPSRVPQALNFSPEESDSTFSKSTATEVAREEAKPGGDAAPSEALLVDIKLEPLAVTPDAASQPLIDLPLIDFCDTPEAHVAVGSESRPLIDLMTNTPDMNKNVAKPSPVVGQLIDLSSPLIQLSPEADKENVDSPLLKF
# UniProt Q92664: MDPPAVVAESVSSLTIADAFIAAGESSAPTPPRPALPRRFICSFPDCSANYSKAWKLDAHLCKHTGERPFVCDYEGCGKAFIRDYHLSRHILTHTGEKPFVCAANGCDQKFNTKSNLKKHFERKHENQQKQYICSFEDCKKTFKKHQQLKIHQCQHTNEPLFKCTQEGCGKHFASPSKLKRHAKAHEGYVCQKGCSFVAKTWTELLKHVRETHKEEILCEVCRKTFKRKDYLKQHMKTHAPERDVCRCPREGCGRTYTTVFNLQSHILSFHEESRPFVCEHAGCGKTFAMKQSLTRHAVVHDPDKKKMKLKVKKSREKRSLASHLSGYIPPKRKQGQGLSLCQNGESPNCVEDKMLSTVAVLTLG
# UniProt Q7Z4Q2: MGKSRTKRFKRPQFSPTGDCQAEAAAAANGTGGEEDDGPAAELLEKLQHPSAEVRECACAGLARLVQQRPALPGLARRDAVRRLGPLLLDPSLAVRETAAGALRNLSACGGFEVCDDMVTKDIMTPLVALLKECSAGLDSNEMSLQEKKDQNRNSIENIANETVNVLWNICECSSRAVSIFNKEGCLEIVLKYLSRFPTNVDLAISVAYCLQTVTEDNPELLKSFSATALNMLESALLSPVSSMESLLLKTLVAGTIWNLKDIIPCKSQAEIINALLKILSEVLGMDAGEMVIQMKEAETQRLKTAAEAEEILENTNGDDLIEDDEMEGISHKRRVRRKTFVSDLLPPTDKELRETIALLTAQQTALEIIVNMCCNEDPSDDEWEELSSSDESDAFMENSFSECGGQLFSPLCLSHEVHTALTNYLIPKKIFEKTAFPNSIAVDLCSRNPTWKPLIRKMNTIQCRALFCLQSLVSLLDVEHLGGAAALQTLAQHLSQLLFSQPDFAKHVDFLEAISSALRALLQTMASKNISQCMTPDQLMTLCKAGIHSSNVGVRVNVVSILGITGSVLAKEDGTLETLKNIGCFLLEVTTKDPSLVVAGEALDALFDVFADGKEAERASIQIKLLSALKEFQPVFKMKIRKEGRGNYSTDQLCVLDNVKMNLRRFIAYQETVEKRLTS
# Key:
# Test in all cases: log2 fold change, soluble protein after heating vs DMSO (PISA); higher = thermal stabilisation; K562 lysate, 10 uM; active = over 0.2 and 3.5 SD of the protein, either way, in both replicates (recomputed)
# [1] = compound: Cc1cn(-c2cc(NC(=O)c3ccc(C)c(Nc4nccc(-c5cccnc5)n4)c3)cc(C(F)(F)F)c2)cn1 [nilotinib]
# How it was run: (§1)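 Dounce homogenisation of K562 pellets in PBS pH 7.4 with 1 mM MgCl2 produced a crude extract, used at 1 mg/mL protein. Exposure to 10 μM compound lasted 30 min, and aliquots were then heated for 3 min across 48°C-58°C, pooled and brought to 0.5% NP-40 at 4°C. The supernatant after 21,000xg for 90 min was quantified by TMTpro 16plex LC-MS/MS with channel sums equalised. Duplicate values are given as log-two fold change in thermal stability relative to solvent controls.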
# [2] = compound: Cc1nc(Nc2n[nH]c3c2CN(C(=O)N[C@H](CN(C)C)c2ccccc2)C3(C)C)c2sccc2n1
# How it was run: as §1
# [3] = compound: Cc1nc(Nc2ncc(C(=O)Nc3c(C)cccc3Cl)s2)cc(N2CCN(CCO)CC2)n1 [dasatinib]
# How it was run: as §1
# [4] = compound: Cc1ncc(-c2ccnc(Nc3ccc(S(C)(=O)=O)cc3)n2)n1C(C)C
# How it was run: as §1
# [5] = compound: Cn1cc(-c2ccc3c(c2)CCN3C(=O)Cc2cccc(C(F)(F)F)c2)c2c(N)ncnc21
# How it was run: as §1
# [6] = compound: Cn1cc(CNCC2CCN(c3ncc(C(=O)NO)cn3)CC2)c2ccccc21 [quisinostat]
# How it was run: as §1
# [7] = compound: Cn1cncc1[C@@](N)(c1ccc(Cl)cc1)c1ccc2c(c1)c(-c1cccc(Cl)c1)cc(=O)n2C [tipifarnib]
# How it was run: as §1
# [8] = compound: NC(=O)Nc1cc(-c2cccc(F)c2)sc1C(=O)N[C@H]1CCCNC1
# How it was run: as §1
# [9] = compound: NC(=O)c1cnc(N[C@@H]2CCCC[C@@H]2N)nc1Nc1cccc(-n2nccn2)c1
# How it was run: as §1
# [10] = compound: NC1(c2ccc(-c3nc4ccn5c(=O)[nH]nc5c4cc3-c3ccccc3)cc2)CCC1
# How it was run: as §1
Target,log2 fold change [1],log2 fold change [2],log2 fold change [3],log2 fold change [4],log2 fold change [5],log2 fold change [6],log2 fold change [7],log2 fold change [8],log2 fold change [9],log2 fold change [10]
HDGF (UniProt P51858),inactive: -0.012,inactive: -0.007,inactive: 0.018,inactive: -0.001,inactive: -0.016,inactive: 0.013,inactive: 0.007,inactive: -0.02,inactive: -0.006,inactive: -0.006
GTF2H2 (UniProt Q13888),inactive: -0.009,inactive: 0.019,inactive: -0.058,inactive: 0.064,inactive: 0.038,inactive: 0.01,inactive: 0.015,inactive: 0.024,inactive: 0.005,inactive: 0
GRK2 (UniProt P25098),inactive: 0.001,active: 0.393,inactive: -0.058,inactive: 0.01,inactive: 0,inactive: 0.034,inactive: -0.001,active: 0.397,inactive: 0.043,inactive: -0.027
H1-3 (UniProt P16402),inactive: 0.024,inactive: -0.003,inactive: 0.006,inactive: 0.002,inactive: -0.067,inactive: -0.021,inactive: 0.026,inactive: 0.022,inactive: -0.034,inactive: -0.019
HBS1L (UniProt Q9Y450),inactive: 0.019,inactive: -0.005,inactive: 0.012,inactive: -0.024,inactive: 0.003,inactive: -0.108,inactive: -0.012,inactive: 0.068,inactive: -0.006,inactive: -0.038
HBZ (UniProt P02008),inactive: 0.071,inactive: -0.019,inactive: 0.011,inactive: 0.062,inactive: 0.001,inactive: 0.017,inactive: 0.016,inactive: -0.042,inactive: -0.049,inactive: 0.005
HDHD5 (UniProt Q9BXW7),inactive: 0.157,inactive: -0.081,inactive: 0.023,inactive: -0.052,inactive: -0.042,inactive: -0.026,inactive: -0.008,inactive: 0.028,inactive: -0.014,inactive: -0.036
GTF2I (UniProt P78347),inactive: 0.001,inactive: 0.002,inactive: -0.042,inactive: -0.011,inactive: 0.035,inactive: -0.006,inactive: -0.008,inactive: 0.034,inactive: 0,inactive: -0.014
GTF2E1 (UniProt P29083),inactive: -0.03,inactive: 0.013,inactive: -0.003,inactive: -0.012,inactive: 0.025,inactive: -0.073,inactive: 0,inactive: -0.001,inactive: 0.006,inactive: -0.003
HDAC4 (UniProt P56524),inactive: 0.029,inactive: 0.021,inactive: -0.014,inactive: 0.02,inactive: 0.047,inactive: 0.055,inactive: -0.075,inactive: -0.015,inactive: -0.005,inactive: 0
HCCS (UniProt P53701),inactive: 0.021,inactive: 0.005,inactive: -0.017,inactive: -0.005,inactive: -0.015,inactive: 0.004,inactive: -0.003,inactive: 0.012,inactive: -0.009,inactive: 0.013
GTSE1 (UniProt Q9NYZ3),inactive: 0.027,inactive: 0.014,inactive: 0.01,inactive: 0.042,inactive: -0.083,inactive: -0.05,inactive: -0.051,inactive: 0.051,inactive: -0.152,inactive: 0.103
GTF3A (UniProt Q92664),inactive: 0.035,inactive: 0.022,inactive: 0.037,inactive: 0.126,inactive: 0,inactive: 0.079,inactive: 0.052,inactive: -0.001,inactive: 0.039,inactive: 0.064
GUSB (UniProt P08236),inactive: 0.028,inactive: -0.067,inactive: 0.007,inactive: -0.026,inactive: -0.002,inactive: -0.109,inactive: -0.066,inactive: -0.041,inactive: 0.001,inactive: -0.01
HEATR3 (UniProt Q7Z4Q2),inactive: 0.023,inactive: -0.021,inactive: -0.042,inactive: -0.031,inactive: 0.062,inactive: -0.078,inactive: 0.019,inactive: 0.033,inactive: -0.015,inactive: 0.001

# Full records, quoted from the list. Values in the order: log2 fold change [1] | log2 fold change [2] | log2 fold change [3] | log2 fold change [4] | log2 fold change [5] | log2 fold change [6] | log2 fold change [7] | log2 fold change [8] | log2 fold change [9] | log2 fold change [10]
# HCCS (UniProt P53701) reads inactive: 0.021 | inactive: 0.005 | inactive: -0.017 | inactive: -0.005 | inactive: -0.015 | inactive: 0.004 | inactive: -0.003 | inactive: 0.012 | inactive: -0.009 | inactive: 0.013
# GTF2H2 (UniProt Q13888) reads inactive: -0.009 | inactive: 0.019 | inactive: -0.058 | inactive: 0.064 | inactive: 0.038 | inactive: 0.01 | inactive: 0.015 | inactive: 0.024 | inactive: 0.005 | inactive: 0

# Reference: the supplement of paper PMC10849652
